No constants are given. Whether binding was seen depends on the method and setting.

This is an account of results in article PMC9858354.

The target of assay [1] is T1, human C-C motif chemokine receptor-like 2 (CCRL2) isoform b, on HEK-huCCRL2 cells (human) (UniProt O00421).
T1 sequence: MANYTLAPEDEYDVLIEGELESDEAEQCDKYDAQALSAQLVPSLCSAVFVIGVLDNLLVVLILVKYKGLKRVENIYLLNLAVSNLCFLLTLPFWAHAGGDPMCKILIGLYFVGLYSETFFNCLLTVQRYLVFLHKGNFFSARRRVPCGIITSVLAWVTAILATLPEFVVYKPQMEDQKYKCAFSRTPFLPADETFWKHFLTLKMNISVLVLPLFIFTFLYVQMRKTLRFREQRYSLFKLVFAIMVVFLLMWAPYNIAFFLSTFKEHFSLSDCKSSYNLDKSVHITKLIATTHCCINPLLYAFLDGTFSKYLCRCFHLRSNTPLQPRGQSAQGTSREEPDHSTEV
In words: flow cytometry on cells; serially diluted biotin-labeled ligand on HEK-huCCRL2, HEK-muCCRL2 or parental HEK cells (2x10^4 cells/well, 384-well), PBS + 0.1% BSA, 4°C 45 min, detected with RRX-streptavidin; MFI normalized to parental HEK cell binding; EC50 from four-parameter fit; only the binder purified.

The target in assay [2] is T2, mouse C-C motif chemokine receptor-like 2 (CCRL2) isoform b, on HEK-muCCRL2 cells (mouse) (UniProt O35457).
T2 sequence: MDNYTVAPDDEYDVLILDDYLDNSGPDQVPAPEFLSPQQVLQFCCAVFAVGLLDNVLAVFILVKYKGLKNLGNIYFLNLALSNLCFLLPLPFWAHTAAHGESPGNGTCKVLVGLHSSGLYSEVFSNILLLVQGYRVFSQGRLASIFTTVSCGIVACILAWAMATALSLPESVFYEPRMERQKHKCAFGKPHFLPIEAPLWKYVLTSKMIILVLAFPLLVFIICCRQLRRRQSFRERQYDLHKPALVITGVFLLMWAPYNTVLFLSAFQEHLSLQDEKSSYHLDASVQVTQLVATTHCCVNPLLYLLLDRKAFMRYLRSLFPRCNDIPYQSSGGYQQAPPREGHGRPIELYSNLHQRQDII
The assay is described as above.

B1: biotin-labeled human CCL18 (ligand, UniProt P55774 21-89)
chain: AQVGTNKELCCLVYTSWQIPQKFIVDYSETSPQCPKPGVILLTKRGRQICADPNKKWVQKYISDLKLNA
modifications: biotin (biotin-labeled human ligands of Fig 1A; EZ-Link Sulfo-NHS-LC-Biotin)
As for B1, the binding result in assay [1] is on record as “no binding”.

B2: biotin-labeled murine CCL8 (ligand, UniProt Q9Z121 24-97)
chain: GPDKAPVTCCFHVLKLKIPLRVLKSYERINNIQCPMEAVVFQTKQGMSLCVDPTQKWVSEYMEILDQKSQILQP
modifications: biotin (EZ-Link Sulfo-NHS-LC-Biotin, biotin-to-analyte molar ratio 5:1)
For B2, in assay [2], the binding result is on record as “no binding”.

B3: biotin-labeled murine CCL19 (ligand, UniProt O70460 26-108)
chain: GANDAEDCCLSVTQRPIPGNIVKAFRYLLNEDGCRVPAVVFTTLRGYQLCAPPDQPWVDRIIRRLKKSSAKNKGNSTRRSPVS
modifications: biotin (EZ-Link Sulfo-NHS-LC-Biotin, biotin-to-analyte molar ratio 5:1)
Regarding B3, the binding entry in assay [2] is reported as “no binding”.
